According to PubChem BioAssay AID2685 (National Center for Advancing Translational Sciences (NCATS), 2010):
Hit rate of the full screen: of about 320,000 compounds, about 2,100 (0.66%) were called active. The shares of active, inactive and inconclusive entries below differ from those in the screen. The call rests on the fitted dose curve; in most records, active means well fitted inhibition curve with a large enough effect in the signal ratio, with a control signal flat (not every such curve was filed as active); inconclusive means small, poorly fitted or top-dose-only effect, or effect the other way, or a change in a side signal; inactive means flat fitted curve, though single readings scatter; the % refers to the signal ratio. Potencies beside an inconclusive call are fits to weak or partial responses and may not hold up.

test: qHTS Assay for Lipid Storage Modulators in Drosophila S3 Cells; settings: BODIPY lipid droplet fluorescence, 18-24 h, cells fed with added oleic acid; lipid storage change, negative = inhibition: at 46.1 µM (top of the series) unless noted
How it was run: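 Drosophila S3 cells loaded with oleic acid (400 uM, as added) and compounds at several concentrations; lipid droplets imaged by 488-nm laser-scanning cytometry, 500–530 nm intensity and object ratio to cell channel. Percent activity normalized to 20 uM Triacsin C.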
On the % scale 0 is the no-effect control and ±100 the full control effect; potency means the concentration at half of the fitted maximal effect.

| SMILES | lipid storage change, negative = inhibition | Potency |
| --- | --- | --- |
| Cn1cc(CN2CCN(Cc3ccc4c(c3)OCO4)CC2)c(-c2ccccc2F)n1 | inconclusive: 25.2% |  |
| CC(C)(CCO)Nc1ncnc2onc(-c3ccc(F)cc3)c12 | inconclusive: 42% |  |
| Cc1[nH]c2ccc(C(C)C)cc2c1CC(=O)O | inconclusive: -12.6% |  |
| COc1ccc(OC)c(S(=O)(=O)N/N=C(/C)c2ccc3c(c2)OCO3)c1 |  | inconclusive: 6.51 µM [activator, single point] |
| CC(=O)Nc1cccc(NC(=O)CSc2nc3c(c(=O)n(C)c(=O)n3C)n2C)c1 | inconclusive: 1.15% |  |
| COc1ccc(C(=O)NCC(=O)OCc2ccc(Cl)cc2Cl)cc1OC | inconclusive: 15.1% |  |
| Nc1cc(Cl)nc(N/N=C/c2ccc([N+](=O)[O-])cc2)n1 | inconclusive: -3.36% |  |
| CCOCC(=O)Nc1ccc(-c2cn3cccnc3n2)cc1 |  | inconclusive: 29.1 µM [cytotoxic, single point] |
| CC(NC(=S)NCc1ccccc1)C12CC3CC(CC(C3)C1)C2 (centres undefined) |  | inconclusive: 20.6 µM [activator, single point] |
| CC(C)(O)C#Cc1ccc([C@@H]2C[C@H]3CN(c4ccccc4)C(=O)[C@]34CCCN24)s1 | inconclusive: 14.8% |  |
| CCn1cc(C(=O)NCc2ccccc2)c(=O)c2cc(F)c(N3CCN(C(=O)c4ccco4)CC3)cc21 |  | inconclusive: 0.092 µM [falling, full curve, poor fit] |
| Cc1ccc(OCC(=O)N2CCN(C(=O)c3ccco3)CC2)cc1 |  | inconclusive: 4.11 µM [cytotoxic, full curve] |
| O=C(Nc1ccc2c(c1)OCO2)C1Cc2ccccc2CN1S(=O)(=O)c1cccs1 (centres undefined) |  | inconclusive: 9.2 µM [activator, partial curve] |
| CC1CCc2sc3ncnc(N4CCN(CCO)CC4)c3c2C1 (centres undefined) | inconclusive: -14.9% |  |
| O=C(O)c1cccc(NC(=S)NC(=O)c2ccc3ccccc3c2)c1 |  | inconclusive: 18.4 µM [falling, partial curve] |
| CC(C)C(C(=O)Nc1ncn[nH]1)N1C(=O)c2ccccc2C1=O (centres undefined) | inconclusive: 41.8% |  |
| CCOC(=O)c1ccccc1NC(=O)COc1ccccc1 | inconclusive: 6.67% |  |
| CCOc1ccc(-c2nc(C#N)c(NCC3CCCO3)o2)cc1 (centres undefined) |  | inconclusive: 2.59 µM [rising, single point] |
| O=C(COC(=O)C1CC1)Nc1ccc2[nH]c(=O)[nH]c2c1 | inconclusive: -52.5% [cytotoxic] |  |
| COc1ccc(/C=C(/NC(=O)c2ccccc2)C(=O)N/N=C/c2ccc3c(c2)OCO3)cc1OC | inconclusive: -17.2% |  |
| N/C(Cc1ccc([N+](=O)[O-])cc1)=N\OC(=O)c1ccco1 | inconclusive: 17% |  |
| COc1ccccc1C1(CC(=O)Nc2nccs2)CCOC(C(C)C)C1 (centres undefined) | inactive: -11.8% |  |
| CN(C)CCCNc1oc(-c2ccccc2Cl)nc1S(=O)(=O)c1ccccc1 | inconclusive: -22.8% |  |
| Cc1ccc(OCCCn2c(CO)nc3ccccc32)cc1 | inconclusive: 122% |  |
| O=S(=O)(c1ccc(-n2cnnn2)cc1)N(C1CCCCC1)C1CCCCC1 |  | inconclusive: 8.2 µM [falling, partial curve] |

| SMILES | lipid storage change, negative = inhibition | Potency |
| --- | --- | --- |
| O=S(=O)(c1ccc(N=C2NN=C(c3cc(F)ccc3F)CS2)cc1)N1CCOCC1 | inconclusive: 11.4% |  |
| Cc1ccc(F)cc1NC(=O)CN1C(=O)NC(C)(c2ccc3c(c2)OCCO3)C1=O (centres undefined) | inconclusive: -13.7% |  |
| O=C(N/N=C\c1ccc(S(=O)(=O)O)o1)c1ccc2c(c1)OCO2 |  | inconclusive: 29.1 µM [activator, single point] |
| CCOC(=O)c1c(NC(=O)CSc2nnc(-c3cccnc3)n2Cc2ccco2)sc(C)c1C |  | inconclusive: 0.206 µM [activator, full curve] |
| CC(C)CSc1nnc2c3ccccc3n(C)c2n1 |  | inconclusive: 29.1 µM [falling, single point] |
| CCOC(=O)c1c(C)[nH]c(C)c1C(=O)CSc1nc2ccccc2c(=O)n1-c1ccc(C)cc1 | inconclusive: 18.4% |  |
| COc1ccc(CCNC(=O)CSc2nnc(-c3cccc(C)c3)o2)cc1OC | inconclusive: 5.18% |  |
| Cc1ccc(OCC(=O)Nc2ccc(-c3nc4ncccc4o3)cc2)cc1 |  | inconclusive: 2.06 µM [activator, partial curve, poor fit] |
| COc1cccc2cc(C(=O)Nc3cc(Cl)ccc3N3CCOCC3)c(=O)oc12 | inconclusive: 23.7% |  |
| CCC1=NN2C(=N)/C(=C\c3ccc(OCCOc4ccccc4)c(OC)c3)C(=O)N=C2S1 |  | inconclusive: 16.4 µM [activator, partial curve] |
| O=C1CC(N2CCN(c3ccc(F)cc3)CC2)C(=O)N1c1ccccc1 (centres undefined) | inconclusive: 13.8% |  |
| COc1ccc(-c2csc(NC(=O)CSc3nnnn3C)n2)cc1OC | inconclusive: 26.8% |  |
| Cn1c(Cl)cnc1C1CC(=O)c2cc(Cl)ccc2O1 (centres undefined) |  | inconclusive: 29.1 µM [cytotoxic, single point] |
| COc1ccc(N2CCN(C(=O)c3ccc(CS(=O)(=O)c4ccccc4C)o3)CC2)cc1 | inconclusive: -41.3% |  |
| CC(=O)N1CCN(c2ccc(NC(=O)c3ccccc3Cl)cc2)CC1 | inconclusive: 53.1% |  |
| COc1ccc(NC(=O)C2CCCN2S(=O)(=O)c2ccc(Cl)cc2)cc1 (centres undefined) | inconclusive: 24.5% |  |
| CC1CN(C(=O)c2ccc(S(=O)(=O)Nc3ccccc3Cl)cc2)CC(C)O1 (centres undefined) | inconclusive: 12.8% |  |
| COC(=O)CSc1nnc(-c2ccc(S(=O)(=O)N3CCCCC3)cc2)o1 |  | inconclusive: 0.0065 µM [falling, full curve, poor fit] |
| CC(C)(C#N)NC(=O)c1ccco1 |  | inconclusive: 0.146 µM [falling, full curve, poor fit] |
| COc1ccccc1C(=O)N/C(=C/c1ccc2c(c1)OCO2)C(=O)Nc1ccc(C(=O)O)cc1 | inconclusive: -4.96% |  |
| O=C(CCCN1C(=O)c2cccc3cccc(c23)C1=O)Nc1ccon1 |  | inconclusive: 0.0651 µM [falling, full curve, poor fit] |
| CNC(=O)/C(C#N)=C\c1ccc(CNS(=O)(=O)c2ccccc2)o1 |  | inconclusive: 1.16 µM [falling, single point] |
| CCCn1nnc(NC(=O)c2ccco2)n1 |  | inconclusive: 0.0046 µM [falling, full curve, poor fit] |
| O=C(COc1ccc(Cl)cc1Cl)NN1C(=O)C2C3C=CC([C@@H]2C1=O)C31CC1 (some centres undefined) |  | inconclusive: 29.1 µM [activator, single point] |
| Cc1ccc(C(=O)OCC(=O)Nc2ccc(Cl)cn2)cc1S(=O)(=O)N1CCOCC1 | inconclusive |  |

6 compounds from above, arranged by count of non-hydrogen atoms, low to high.

| SMILES | lipid storage change, negative = inhibition | Potency |
| --- | --- | --- |
| CC(C)(C#N)NC(=O)c1ccco1 |  | inconclusive: 0.146 µM [falling, full curve, poor fit] |
| COC(=O)CSc1nnc(-c2ccc(S(=O)(=O)N3CCCCC3)cc2)o1 |  | inconclusive: 0.0065 µM [falling, full curve, poor fit] |
| Cc1ccc(OCC(=O)Nc2ccc(-c3nc4ncccc4o3)cc2)cc1 |  | inconclusive: 2.06 µM [activator, partial curve, poor fit] |
| Cc1ccc(C(=O)OCC(=O)Nc2ccc(Cl)cn2)cc1S(=O)(=O)N1CCOCC1 | inconclusive |  |
| CCC1=NN2C(=N)/C(=C\c3ccc(OCCOc4ccccc4)c(OC)c3)C(=O)N=C2S1 |  | inconclusive: 16.4 µM [activator, partial curve] |
| CCOC(=O)c1c(NC(=O)CSc2nnc(-c3cccnc3)n2Cc2ccco2)sc(C)c1C |  | inconclusive: 0.206 µM [activator, full curve] |

(more compounds)

| SMILES | lipid storage change, negative = inhibition | Potency |
| --- | --- | --- |
| CC1CCc2nc(NCCO)nc(C(F)(F)F)c2C1 (centres undefined) | inconclusive: 36.3% |  |
| CCCSc1ccccc1C(=O)N1CCN(C(=O)c2ccco2)CC1 |  | inconclusive: 29.1 µM [falling, single point] |
| CC1CCC(NC(=O)c2nn(C)c3c2CSc2ccccc2-3)CC1 (centres undefined) |  | inconclusive: 29.1 µM [falling, single point] |
| Cc1cccc(OCCCCCn2ccnc2)c1 | inconclusive: -33.2% |  |
| COc1ccc(CN(C)CC2CCCN(CCc3ccc(F)cc3)C2)cc1OC (centres undefined) |  | inconclusive: 1.03 µM [falling, single point] |
| Cc1ccc(S(=O)(=O)Nc2ccccc2C=Nc2cccc(C)c2C)cc1 | inconclusive: -12.5% |  |
| Cc1nn(CC(=O)Nc2ccc(F)cc2)c(=O)c2ccccc12 | inconclusive: -34% |  |
| Cn1nc(C(=O)Nc2nc3ccccc3[nH]2)ccc1=O | inconclusive: -35.3% |  |
| CCN=c1sc(C(=O)NCCc2ccccc2)cc(=O)n1CC |  | inconclusive: 16.4 µM [falling, single point] |
| CCOc1ccccc1NC(=O)Nc1ccc(Cl)cc1 | inconclusive: 20% |  |
| CC1CCCCN1C(=O)CN1C(=O)c2ccccc2S1(=O)=O (centres undefined) |  | inconclusive: 29.1 µM [activator, single point] |
| O=C(COc1cccc(Cl)c1)N/N=C\c1cc2ccccc2nc1Cl |  | inconclusive: 1.03 µM [rising, full curve, poor fit] |
| COc1ccc(NC(=O)NCc2ccccc2F)cc1OC | inconclusive: 6.91% |  |
| COc1ccc(CCC(=O)NCCS(=O)(=O)N2CCN(c3ccccc3OC)CC2)cc1 |  | inconclusive: 6.51 µM [falling, single point] |
| COCC(=O)N(Cc1cc2cc(OC)ccc2[nH]c1=O)c1ccccc1OC | inconclusive: 18.8% |  |
| CCC(=O)Nc1ccc(NCc2cccs2)cc1 |  | inconclusive: 0.651 µM [falling, partial curve, poor fit] |
| Cc1cc(C)n(-c2ncnc3sc4c(c23)CCCC4)n1 | inconclusive: -6.6% |  |
| CCOC(=O)C1CCN(C(=O)Nc2ccc(NC(=O)C3CCN(C(=O)OCC)CC3)cc2)CC1 | inconclusive: -9.89% |  |
| CCCCOC(=O)Nc1nc2ccccc2s1 | inconclusive: -56.1% |  |
| COc1ccc(-c2[nH]c(-c3ccc(F)cc3)nc2SCC(=O)NC2CCCC2)cc1 | inconclusive: 34.3% |  |
| CCOC(=O)N1CCN(C(=O)COc2cccc3c2CCN(Cc2ccc(F)cc2)C3=O)CC1 | inconclusive: -25.9% |  |
| O=C(Oc1ccc(N2C(=O)CCC2=O)cc1)c1ccco1 |  | inconclusive: 3.66 µM [cytotoxic, full curve] |
| CCCCOC(=O)/C=C\C(=O)NC(N)=O | inconclusive: -23.7% |  |
| O=C(Cn1ncc2c3ccccc3n(Cc3ccccc3F)c2c1=O)N1CCN(c2ccccn2)CC1 | inconclusive: -0.486% |  |
